According to patent US20200231668A1 (INTRINSIC LIFESCIENCES, published 2020):
Results are given in words; binding and its absence hold for the method and conditions named. Some results given as binding are weak or reduced against the parent protein; the word gives no strength.

Experiments:
[1] = molecular target: T1, endogenous human ERFE in serum samples (human) (UniProt Q4G0M1); experiment: sandwich ELISA on human serum
T1 sequence: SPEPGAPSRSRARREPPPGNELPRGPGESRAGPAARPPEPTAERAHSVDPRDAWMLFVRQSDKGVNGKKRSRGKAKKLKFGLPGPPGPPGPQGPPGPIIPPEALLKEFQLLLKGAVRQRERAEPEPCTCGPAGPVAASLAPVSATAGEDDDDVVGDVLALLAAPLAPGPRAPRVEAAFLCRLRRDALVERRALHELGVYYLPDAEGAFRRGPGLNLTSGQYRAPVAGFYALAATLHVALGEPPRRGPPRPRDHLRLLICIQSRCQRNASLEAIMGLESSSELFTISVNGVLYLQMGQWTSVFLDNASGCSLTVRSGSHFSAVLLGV

[2] = molecular target: T1, endogenous human ERFE in serum samples (human); experiment: sandwich ELISA on human serum, 2D2-biotin or 2D2-HRP detection, 4C1 capture

- binding [1]: binds
- binding [2]: binds
B1: monoclonal antibody 2D2 (ATCC Accession Number PTA-123879) (antibody, mouse IgG2a, kappa, V domains shown)
VH: EVQLQQFGPELVKPGGSVKISCKASGYTFTDYNMDWVKQSHGKSLEWIGDFNPNYDSSTYNQKFKGKATLTVDKSSSTAYMELRSLTSEDTAVYYCARGMILYYGNSGSMDYWGQGTSVTVSS
VL: DIQMTQSSSYLSVSLGGRVTITCKASDHINNWLAWYQQKPGNAPRLLISGATSLETGVPSRFSGSGSGKDYTLTIISLQTEDVATYYCQQYWNTPRTFGGGTKLEIKR
